Source: PMC10520678
These are yes or no findings as the source states them, for the method shown. Binding seen in cells or lysates may run through a third protein. Some results given as binding are weak or reduced against the parent protein; the word gives no strength.

Protein sequences, listed by entry. Tags and fused reporters are not part of them. Lines headed by an entry give the natural chain unless they say otherwise; changes in a name come on top. Chains listed by the source or under a name are the forms on record and can include a tag or linker. Residues count along the entry.
WT Flag-CD47 (human) (Q08722, residues 19-323): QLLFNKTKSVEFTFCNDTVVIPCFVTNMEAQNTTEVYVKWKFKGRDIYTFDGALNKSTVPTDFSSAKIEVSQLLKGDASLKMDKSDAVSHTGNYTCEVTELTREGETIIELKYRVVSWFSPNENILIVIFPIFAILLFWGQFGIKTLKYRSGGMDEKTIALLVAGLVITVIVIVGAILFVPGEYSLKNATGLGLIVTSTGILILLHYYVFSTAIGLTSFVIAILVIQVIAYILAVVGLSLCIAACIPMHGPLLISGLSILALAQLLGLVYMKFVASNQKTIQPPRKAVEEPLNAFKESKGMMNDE
Flag-CD47 Y288F (human) (Q08722, form named): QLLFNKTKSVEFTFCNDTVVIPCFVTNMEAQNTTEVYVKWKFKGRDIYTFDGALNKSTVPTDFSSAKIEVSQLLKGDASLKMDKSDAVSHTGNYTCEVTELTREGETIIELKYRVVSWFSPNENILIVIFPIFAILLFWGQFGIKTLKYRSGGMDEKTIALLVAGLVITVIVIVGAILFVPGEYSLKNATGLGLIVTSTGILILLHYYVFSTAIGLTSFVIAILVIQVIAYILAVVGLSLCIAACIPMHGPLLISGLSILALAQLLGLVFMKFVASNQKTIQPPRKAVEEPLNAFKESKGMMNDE
UniProt P19474: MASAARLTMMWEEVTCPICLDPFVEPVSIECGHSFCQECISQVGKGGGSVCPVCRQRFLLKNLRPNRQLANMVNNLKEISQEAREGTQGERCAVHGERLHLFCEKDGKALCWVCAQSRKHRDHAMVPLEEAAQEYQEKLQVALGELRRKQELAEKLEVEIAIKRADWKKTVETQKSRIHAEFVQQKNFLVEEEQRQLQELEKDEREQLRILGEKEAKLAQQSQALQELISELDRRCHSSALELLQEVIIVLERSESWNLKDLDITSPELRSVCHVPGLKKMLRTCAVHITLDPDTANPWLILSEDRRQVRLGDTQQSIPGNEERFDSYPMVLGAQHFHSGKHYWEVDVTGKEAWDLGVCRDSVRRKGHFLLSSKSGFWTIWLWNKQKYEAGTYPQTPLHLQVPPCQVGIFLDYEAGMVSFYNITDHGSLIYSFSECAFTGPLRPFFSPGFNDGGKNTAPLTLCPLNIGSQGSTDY

Tests used:
[1] = target: CD47 (integrin-associated protein), endogenous in U251 cells (human (endogenous in U251)) (UniProt Q08722); test: co-IP; endogenous CD47 immunoprecipitated with an anti-CD47 antibody from U251 lysates, immunoblot for the partner; cells serum-starved and with or without EGF (100 ng/mL, 1 h), with EGFR inhibitors, or transfected with c-Src WT or c-Src CA (48 h)
[2] = target: WT Flag-CD47 (human) (human) (UniProt Q08722); test: co-IP; Flag-CD47 or Flag-CD47 Y288F transiently transfected in HEK293T/EGFR cells, with or without EGF (100 ng/mL, 1 h) or c-Src CA expression; immunoprecipitation with anti-Flag beads, immunoblot for TRIM21
[3] = target: Flag-CD47 Y288F (human) (human) (UniProt Q08722); test: as above

“TRIM21 (tripartite motif-containing protein 21), endogenous in U251 cells (from UniProt P19474 1-475) (enzyme)” was tested, and the binding [1] was “binds”.

For “TRIM21, in HEK293T/EGFR cells (from UniProt P19474 1-475) (enzyme)”, the binding [2] was “binds” and the binding [3] was “binds”.
